Results as given in paper doi:10.1101/2025.11.14.688441.
No constants are given. Whether binding was seen depends on the method and setting. Binding seen in cells or lysates may run through a third protein. Some results given as binding are weak or reduced against the parent protein; the word gives no strength.

Chains of the proteins cited; added tags and fusions are not shown.
UniProt Q8BX22: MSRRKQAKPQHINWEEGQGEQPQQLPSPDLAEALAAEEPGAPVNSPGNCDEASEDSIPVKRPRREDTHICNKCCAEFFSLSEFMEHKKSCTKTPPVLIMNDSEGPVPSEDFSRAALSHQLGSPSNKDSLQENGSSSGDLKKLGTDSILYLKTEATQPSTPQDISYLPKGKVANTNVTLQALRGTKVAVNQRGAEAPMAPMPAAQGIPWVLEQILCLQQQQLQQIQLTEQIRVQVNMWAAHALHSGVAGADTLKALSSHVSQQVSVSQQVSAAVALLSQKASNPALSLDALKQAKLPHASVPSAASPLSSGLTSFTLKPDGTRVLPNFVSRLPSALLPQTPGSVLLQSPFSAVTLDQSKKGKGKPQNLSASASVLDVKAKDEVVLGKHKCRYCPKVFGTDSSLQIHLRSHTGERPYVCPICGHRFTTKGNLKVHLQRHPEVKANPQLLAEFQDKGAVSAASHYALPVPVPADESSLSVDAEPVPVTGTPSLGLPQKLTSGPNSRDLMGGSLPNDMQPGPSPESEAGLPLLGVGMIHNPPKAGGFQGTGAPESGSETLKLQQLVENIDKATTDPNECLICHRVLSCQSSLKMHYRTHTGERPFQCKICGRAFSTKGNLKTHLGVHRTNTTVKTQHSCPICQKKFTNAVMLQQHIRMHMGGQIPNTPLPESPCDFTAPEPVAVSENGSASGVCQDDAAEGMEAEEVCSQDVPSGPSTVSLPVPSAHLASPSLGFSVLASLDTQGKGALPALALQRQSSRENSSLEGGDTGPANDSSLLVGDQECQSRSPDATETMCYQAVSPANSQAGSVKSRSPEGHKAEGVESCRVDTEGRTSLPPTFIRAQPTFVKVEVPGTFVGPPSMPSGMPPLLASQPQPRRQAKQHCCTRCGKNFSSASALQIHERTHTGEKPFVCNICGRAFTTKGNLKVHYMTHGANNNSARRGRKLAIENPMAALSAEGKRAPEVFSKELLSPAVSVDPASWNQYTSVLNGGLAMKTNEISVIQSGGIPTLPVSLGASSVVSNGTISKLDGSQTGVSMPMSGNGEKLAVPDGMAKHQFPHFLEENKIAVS

Molecular target: SALL4 (wild-type, endogenous in mouse embryonic stem cells) (mouse (endogenous in E14Ju09 ESCs)) (UniProt Q8BX22)
Assay: co-IP

binding: binds
B1: SALL1 (protein, UniProt Q9ER74 1-1322)
chain: MSRRKQAKPQHFQSDPEVASLPRRDGDTEKGQPSRPTKSKDAHVCGRCCAEFFELSDLLLHKKSCTKNQLVLIVNESPASPAKTFPPGPSLNDPDDQMKDAANKADQEDCSDLSEPKGLDREESMEVEVPVATTTTTTTGGSGGSGGSTLSGVTNITTPSCHSGCSSGTSAITTSLPQLGDLTTLGNFSVINSNVIIENLQSTKVAVAQFSQEARCGGASGGKLLISTLMEQLLALQQQQIHQLQLIEQIRHQILLLASQSADLPAAPSIPSQGTLRTSANPLTTLSSHLSQQLAVAAGLAQSLASQSANISGVKQLPHVQLPQSSSGTSIVPPSGGTSPNMSIVTAAVPTPSSEKVASNAGASHVSSPAVSASSSPAFAISSLLSPESNPLLPQPTPANAVFPTPLPNIATTAEDLNSLSALAQQRKSKPPNVTAFEAKSTSDEAFFKHKCRFCAKVFGSDSALQIHLRSHTGERPFKCNICGNRFSTKGNLKVHFQRHKEKYPHIQMNPYPVPEHLDNVPTSTGIPYGMSIPSEKPVTSWLDTKPVLPTLTTSVGLPLPPTLPSLTPFIKTEEPAPIPISHSAASPQGSVKSDSGAPDLATRNPSGVPEEVEGSAVPPFGGKGEESNMASSAVPTAGNSTLNSPVADGGPGGTTFTNPLLPLMSEQFKAKFPFGGLLDSAQASETSKLQQLVENIDKKATDPNECIICHRVLSCQSALKMHYRTHTGERPFKCKICGRAFTTKGNLKTHYSVHRAMPPLRVQHSCPICQKKFTNAVVLQQHIRMHMGGQIPNTPVPDNYPESMESDTGSFDEKNFDDLDNFSDENMEECPEGSIPDTPKSADASQDSLSSSPLPLEMSSIAALENQMKMINAGLAEQLQASLKSVENGSMEGDVLTNDSSSVGGDMESQSAGSPAISESTSSMQALSPSNSTQEFHKSPGMEEKPQRVGPGEFANGLSPTPVNGGALDLTSSHAEKIIKEDSLGILFPFRDRGKFKNTACDICGKTFACQSALDIHYRSHTKERPFICTVCNRGFSTKGNLKQHMLTHQMRDLPSQLFEPSSNLGPNQNSAVIPANSLSSLIKTEVNGFVHVSPQDSKDAPTSHVPQGPLSSSATSPVLLPALPRRTPKQHYCNTCGKTFSSSSALQIHERTHTGEKPFACTICGRAFTTKGNLKVHMGTHMWNSTPARRGRRLSVDGPMTFLGGNPVKFPEMFQKDLAARSGSGDPSSFWNQYTAALSNGLAMKANEISVIQNGGIPPIPGSLGSGSSPISGLTGNVEKLGNSEPSAPLAGLEKMASSENGTNFRFTRFVEDSKEIVTS
